# These are yes or no findings as the source states them, for the method shown. Binding seen in cells or lysates may run through a third protein. Some results given as binding are weak or reduced against the parent protein; the word gives no strength.
# The chains behind the UniProt entries cited, without tags or fusion partners.
# UniProt P78527: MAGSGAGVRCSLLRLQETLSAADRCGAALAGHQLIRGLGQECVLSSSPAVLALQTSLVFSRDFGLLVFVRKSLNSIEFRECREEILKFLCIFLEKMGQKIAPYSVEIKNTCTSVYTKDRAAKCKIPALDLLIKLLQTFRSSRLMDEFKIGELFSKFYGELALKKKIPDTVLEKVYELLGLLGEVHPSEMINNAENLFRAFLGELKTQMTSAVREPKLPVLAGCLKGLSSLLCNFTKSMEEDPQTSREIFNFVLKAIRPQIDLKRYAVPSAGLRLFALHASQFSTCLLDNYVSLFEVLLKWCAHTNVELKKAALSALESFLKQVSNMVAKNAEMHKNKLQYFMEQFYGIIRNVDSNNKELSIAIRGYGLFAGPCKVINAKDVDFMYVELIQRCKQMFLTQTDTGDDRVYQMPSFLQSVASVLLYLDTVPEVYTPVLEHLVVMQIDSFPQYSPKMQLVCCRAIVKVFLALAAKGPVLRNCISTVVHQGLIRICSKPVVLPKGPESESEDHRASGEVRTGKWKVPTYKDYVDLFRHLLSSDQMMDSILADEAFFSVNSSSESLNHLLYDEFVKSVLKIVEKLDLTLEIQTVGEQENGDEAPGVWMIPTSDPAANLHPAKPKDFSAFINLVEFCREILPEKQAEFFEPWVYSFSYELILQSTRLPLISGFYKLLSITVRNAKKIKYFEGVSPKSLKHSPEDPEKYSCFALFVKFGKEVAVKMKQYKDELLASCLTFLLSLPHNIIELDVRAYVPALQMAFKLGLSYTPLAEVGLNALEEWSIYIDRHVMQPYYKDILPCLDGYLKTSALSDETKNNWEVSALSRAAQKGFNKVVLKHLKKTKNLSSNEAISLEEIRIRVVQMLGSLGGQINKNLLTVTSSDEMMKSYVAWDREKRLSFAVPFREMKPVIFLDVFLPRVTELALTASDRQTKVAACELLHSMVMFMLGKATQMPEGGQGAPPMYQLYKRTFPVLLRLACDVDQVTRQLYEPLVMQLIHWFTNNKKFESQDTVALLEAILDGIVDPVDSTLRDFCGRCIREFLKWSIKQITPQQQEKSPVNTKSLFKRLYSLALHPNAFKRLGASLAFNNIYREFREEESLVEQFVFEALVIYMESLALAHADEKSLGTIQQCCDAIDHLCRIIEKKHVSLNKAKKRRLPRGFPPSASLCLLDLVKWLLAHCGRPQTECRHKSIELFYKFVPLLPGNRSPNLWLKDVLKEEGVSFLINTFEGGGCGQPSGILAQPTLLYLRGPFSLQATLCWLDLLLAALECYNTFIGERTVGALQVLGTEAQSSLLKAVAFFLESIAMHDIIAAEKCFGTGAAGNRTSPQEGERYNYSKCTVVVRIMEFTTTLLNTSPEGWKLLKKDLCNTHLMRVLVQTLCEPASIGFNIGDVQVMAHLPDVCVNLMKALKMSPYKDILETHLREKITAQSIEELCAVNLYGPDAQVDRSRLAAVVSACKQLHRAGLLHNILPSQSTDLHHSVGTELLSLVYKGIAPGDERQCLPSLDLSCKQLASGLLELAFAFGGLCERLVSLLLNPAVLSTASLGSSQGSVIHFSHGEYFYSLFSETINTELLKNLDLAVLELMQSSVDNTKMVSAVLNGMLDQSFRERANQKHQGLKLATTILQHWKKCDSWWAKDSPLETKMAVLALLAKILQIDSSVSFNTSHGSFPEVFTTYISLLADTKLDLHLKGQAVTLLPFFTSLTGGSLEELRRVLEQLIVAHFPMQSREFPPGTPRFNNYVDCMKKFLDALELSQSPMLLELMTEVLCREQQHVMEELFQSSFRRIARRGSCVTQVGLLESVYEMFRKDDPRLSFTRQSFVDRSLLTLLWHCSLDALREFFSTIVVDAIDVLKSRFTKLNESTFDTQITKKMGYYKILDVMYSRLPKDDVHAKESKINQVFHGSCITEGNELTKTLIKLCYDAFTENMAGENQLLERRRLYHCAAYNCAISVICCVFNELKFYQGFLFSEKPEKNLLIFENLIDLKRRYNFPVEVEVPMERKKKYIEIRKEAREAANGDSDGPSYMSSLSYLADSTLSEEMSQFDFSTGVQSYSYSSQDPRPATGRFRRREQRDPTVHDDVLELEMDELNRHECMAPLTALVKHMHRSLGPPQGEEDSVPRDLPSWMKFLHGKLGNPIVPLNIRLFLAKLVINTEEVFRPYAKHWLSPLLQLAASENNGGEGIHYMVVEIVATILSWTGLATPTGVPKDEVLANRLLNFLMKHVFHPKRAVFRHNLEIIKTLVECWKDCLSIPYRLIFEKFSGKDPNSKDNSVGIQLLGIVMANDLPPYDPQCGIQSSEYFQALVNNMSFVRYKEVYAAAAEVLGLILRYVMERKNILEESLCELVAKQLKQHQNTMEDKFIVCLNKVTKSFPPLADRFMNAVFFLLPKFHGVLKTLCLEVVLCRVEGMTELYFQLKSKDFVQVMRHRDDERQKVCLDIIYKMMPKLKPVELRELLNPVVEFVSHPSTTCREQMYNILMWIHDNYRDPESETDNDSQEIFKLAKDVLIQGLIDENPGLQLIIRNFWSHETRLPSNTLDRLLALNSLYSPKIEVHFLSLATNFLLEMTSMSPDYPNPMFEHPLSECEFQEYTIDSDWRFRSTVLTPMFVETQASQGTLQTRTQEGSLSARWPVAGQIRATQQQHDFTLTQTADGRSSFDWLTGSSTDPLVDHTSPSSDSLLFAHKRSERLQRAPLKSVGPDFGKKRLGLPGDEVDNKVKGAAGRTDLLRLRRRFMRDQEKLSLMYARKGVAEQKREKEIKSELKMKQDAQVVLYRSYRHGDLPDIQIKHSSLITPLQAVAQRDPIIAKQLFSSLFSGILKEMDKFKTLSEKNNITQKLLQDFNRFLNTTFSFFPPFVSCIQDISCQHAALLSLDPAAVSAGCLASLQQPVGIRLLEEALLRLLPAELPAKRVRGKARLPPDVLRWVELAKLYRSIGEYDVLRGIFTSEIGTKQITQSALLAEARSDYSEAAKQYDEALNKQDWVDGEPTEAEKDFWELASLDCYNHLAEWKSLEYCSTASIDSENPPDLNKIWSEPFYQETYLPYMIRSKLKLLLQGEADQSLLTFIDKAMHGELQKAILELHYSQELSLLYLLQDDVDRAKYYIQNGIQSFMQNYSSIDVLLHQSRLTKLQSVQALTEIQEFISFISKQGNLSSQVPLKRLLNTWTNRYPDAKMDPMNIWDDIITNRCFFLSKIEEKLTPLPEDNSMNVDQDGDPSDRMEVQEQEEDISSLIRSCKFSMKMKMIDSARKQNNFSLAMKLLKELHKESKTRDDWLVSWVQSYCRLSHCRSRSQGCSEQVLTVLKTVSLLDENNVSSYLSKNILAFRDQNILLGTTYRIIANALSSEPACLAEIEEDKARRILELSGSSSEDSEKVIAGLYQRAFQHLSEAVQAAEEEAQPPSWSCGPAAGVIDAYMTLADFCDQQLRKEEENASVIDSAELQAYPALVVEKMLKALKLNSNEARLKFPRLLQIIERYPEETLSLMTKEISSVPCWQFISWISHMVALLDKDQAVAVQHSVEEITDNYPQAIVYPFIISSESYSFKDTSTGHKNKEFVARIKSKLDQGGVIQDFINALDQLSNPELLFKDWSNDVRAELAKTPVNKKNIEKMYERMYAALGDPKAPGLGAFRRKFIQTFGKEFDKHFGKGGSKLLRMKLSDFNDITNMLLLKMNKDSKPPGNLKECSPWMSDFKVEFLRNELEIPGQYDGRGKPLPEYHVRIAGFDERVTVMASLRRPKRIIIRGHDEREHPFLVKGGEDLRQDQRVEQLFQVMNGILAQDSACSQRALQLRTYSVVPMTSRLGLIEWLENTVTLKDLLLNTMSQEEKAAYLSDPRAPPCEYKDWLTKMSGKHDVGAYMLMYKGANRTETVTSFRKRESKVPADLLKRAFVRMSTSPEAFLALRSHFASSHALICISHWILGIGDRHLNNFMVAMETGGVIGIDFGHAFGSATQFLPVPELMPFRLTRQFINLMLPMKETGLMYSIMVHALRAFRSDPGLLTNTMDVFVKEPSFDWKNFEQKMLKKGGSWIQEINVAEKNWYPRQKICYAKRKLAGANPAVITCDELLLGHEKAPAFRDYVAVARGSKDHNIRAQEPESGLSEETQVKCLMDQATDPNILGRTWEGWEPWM
# Biological target: Insulin-like growth factor binding protein-3 (human (endogenous in SAS)) (UniProt P17936)
# Test: co-IP; SAS cell lysates in RIPA buffer (25 mM tris-HCl pH 7.6, 150 mM NaCl, 1% NP-40, 1% sodium deoxycholate, 0.1% SDS) immunoprecipitated with anti-IGFBP-3 antibody and protein A-Sepharose; immunoblot with anti-EGFR and anti-phospho-DNA-PKcs; cells with or without 10 Gy X-ray irradiation (complexes increased after 10 Gy)
row,binding,Substance
1,binds,epidermal growth factor receptor (from UniProt P00533 25-1210)
2,binds,phosphorylated DNA-dependent protein kinase catalytic subunit (S2056) (from UniProt P78527 1-4128) (enzyme)
